Test results from patent US9133271 (AbbVie / Abbott, dated 2015).
Results are given in words; binding and its absence hold for the method and conditions named. Some binding calls cover weakened binding; strength is not graded here.

Protein sequences, listed by entry. Tags and fused reporters are not part of them. Lines headed by an entry give the natural chain unless they say otherwise; changes in a name come on top.
UniProt O88516: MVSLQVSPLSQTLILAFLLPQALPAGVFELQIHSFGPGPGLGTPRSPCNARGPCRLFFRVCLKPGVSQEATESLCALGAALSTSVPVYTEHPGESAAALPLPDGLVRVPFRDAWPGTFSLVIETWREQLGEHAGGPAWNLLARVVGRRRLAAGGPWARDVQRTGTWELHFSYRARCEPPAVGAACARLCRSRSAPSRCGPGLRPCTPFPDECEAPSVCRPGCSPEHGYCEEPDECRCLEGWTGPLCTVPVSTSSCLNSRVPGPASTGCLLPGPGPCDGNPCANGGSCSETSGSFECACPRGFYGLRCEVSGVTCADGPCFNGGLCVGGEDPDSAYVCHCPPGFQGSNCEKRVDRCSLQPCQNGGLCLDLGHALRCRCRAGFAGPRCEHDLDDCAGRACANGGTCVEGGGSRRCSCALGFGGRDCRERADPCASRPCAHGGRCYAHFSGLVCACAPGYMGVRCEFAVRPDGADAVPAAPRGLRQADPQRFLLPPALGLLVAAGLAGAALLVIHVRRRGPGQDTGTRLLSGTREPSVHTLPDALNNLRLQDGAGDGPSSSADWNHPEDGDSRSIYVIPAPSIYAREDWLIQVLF

B1: hSC16.15 (antibody, V domains shown)
VH: QVQLVQSGAEVKKPGASVKVSCKASGYTFTRYWIHWIRQAPGQGLEWMGYINPTTVYTEFNQNFKDRVTMTRDTSTSTVYMELSSLRSEDTAVYYCARGGSNFFDYWGQGTTVTVSS
VL: AIQLTQSPSSLSASVGDRVTITCRASENIYYNLAWYQQKPGKAPKLLIYTANSLEDGVPSRFSGSGSGTDFTLTISSLQPEDFATYFCKQAYDVPPTFGGGTKLEIK
B2: hSC16.34 (antibody, V domains shown)
VH: QVQLVQSGAEVKKPGASVKVSCKASGYTFTNYGMNWVRQAPGQRLEWMGWINTYTGDPTYADDFKGRVTITRDTSASTAYMELSSLRSEDTAVYYCARIGGNSPSDYWGQGTTVTVSS
VL: DIQMTQSPSSLSASVGDRVTITCKASQSVSNDVAWYQQKPGKVPKLLIYYASNRYSGVPSRFSGSGSGTDFTLTISSLQPEDVATYFCQQDYSSPWTFGGGTKVEIK
B3: hSC16.56 (antibody, V domains shown)
VH: QVQLVQSGAEVKKPGASVKVSCKASGYTFTNYGMNWVRQAPGQGLEWMGWINTYTGEPTYADDFKGRVTMTTDTSTSTAYMELRSLRSDDTAVYYCARIGDSSPSDYWGQGTLVTVSS
VL: EIVMTQSPATLSVSPGERATLSCKASQSVSNDVVWYQQKPGQAPRLLIYYASNRYTGIPARFSGSGSGTEFTLTISSLQSEDFAVYYCQQDYTSPWTFGQGTKLEIKR

biological target: murine DLL3 on 293 cells (h293-mDLL3) (murine) (UniProt O88516); experiment: assay and form of the mouse antigen not given on the sheet; table of properties of humanized constructs

binding, binds:
B1
B2
B3
